These are literature values, as cited in article PMC2606674, “Metabolism of no-carrier-added 2-[^18F]fluoro-L-tyrosine in rats” (BMC Medical Physics, 2008).

The data set relates to mice brain. The settings on record: cited from earlier work.

Molecules are shown by their SMILES.

With `N[C@@H](Cc1ccc(O)cc1[18F])C(=O)O` [2-[^18F]Tyr, 2-[^18F]fluoro-L-tyrosine], the “effect of an inhibitor for protein synthesis on uptake in mice brain” value is reported as “partially reduced”.
`[11CH3]SCC[C@H](N)C(=O)O` [L-[S-methyl-^11C]methionine, L-[S-methyl-^11C]-methionine, reference compound]: the “effect of an inhibitor for protein synthesis on uptake in mice brain” value is “not influenced”.
